Laboratory results: PubChem BioAssay AID1259254 (NCATS, 2017)
In all, the deposit lists about 59,000 reagents; below is an unselected part. In the full data, about 1,550 (2.6%) got an active call. 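G2 share is only a proxy for re-replication; each gene was hit by three separate siRNAs, and active genes were retested.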 Raw values are not corrected between plates. Reagents against one gene are numbered here. The record does not give: the amount of reagent.

- Assay: 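Genome-wide screen for genes that prevent DNA re-replication in cancer cells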 (primary screen)
- Cells: human HCT116 colorectal cancer cells
- Knock-down reagent: single siRNA against human genes
- Time to read-out: 3 days
- Measurement: 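Imaged Hoechst DNA stain sorts each cell into a cycle phase by DNA amount; per plate, G2 fraction set to 0% for non-targeting and 100% for GMNN siRNA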
- Direction: G2 robust z-score and G2 cells, % of GMNN control: higher = more G2 cells, more excess DNA replication; raw share of cells in G2: higher = larger share of cells with G2 DNA content
- Hit rule: 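Active siRNAs have a G2 robust z of 5 or more median absolute deviations over the median, which in these data means about 38% or higher of GMNN control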

| gene symbol | reagent | G2 robust z-score | G2 cells, % of GMNN control | raw share of cells in G2 (%) | call |
| --- | --- | --- | --- | --- | --- |
| MAOA | 1 | 5.66 | 42.8 | 22.4 | active |
| MAOA | 2 | -0.455 | -0.236 | 3.12 | inactive |
| MAOA | 3 | 3.22 | 25.6 | 15.3 | inactive |
| GPRIN3 | 1 | -0.0565 | 2.57 | 4.58 | inactive |
| GPRIN3 | 2 | 1.2 | 11.4 | 7.46 | inactive |
| GPRIN3 | 3 | -0.531 | -0.77 | 3.03 | inactive |
| DDHD2 | 1 | -0.372 | 0.352 | 6.51 | inactive |
| DDHD2 | 2 | -0.791 | -2.6 | 3.29 | inactive |
| DDHD2 | 3 | 1.07 | 10.5 | 7.46 | inactive |
| NUCB2 | 1 | -0.211 | 1.48 | 3.7 | inactive |
| NUCB2 | 2 | -0.545 | -0.864 | 4.4 | inactive |
| NUCB2 | 3 | -1.16 | -5.16 | 3.25 | inactive |
| ZBTB49 | 1 | -0.325 | 0.683 | 3.33 | inactive |
| ZBTB49 | 2 | -0.0206 | 2.82 | 4.15 | inactive |
| ZBTB49 | 3 | -0.161 | 1.83 | 4.17 | inactive |
| ZFP69B | 1 | 0.447 | 6.11 | 4.95 | inactive |
| ZFP69B | 2 | -1.4 | -6.9 | 2.79 | inactive |
| ZFP69B | 3 | 1.19 | 11.4 | 7.2 | inactive |
| EDNRA | 1 | 1.72 | 15.1 | 11.2 | inactive |
| EDNRA | 2 | -0.362 | 0.419 | 4.66 | inactive |
| EDNRA | 3 | -1.06 | -4.47 | 1.9 | inactive |
| RNASEH2C | 1 | -0.985 | -3.96 | 2.28 | inactive |
| RNASEH2C | 2 | -0.799 | -2.66 | 1.6 | inactive |
| RNASEH2C | 3 | -0.303 | 0.838 | 4.39 | inactive |
| DARS1 | 1 | -0.765 | -2.41 | 4.11 | inactive |
| DARS1 | 2 | 1.42 | 12.9 | 9.58 | inactive |
| DARS1 | 3 | 2.85 | 23 | 12 | inactive |
| ZNF649 | 1 | -0.214 | 1.46 | 3.31 | inactive |
| ZNF649 | 2 | -1.08 | -4.61 | 3.83 | inactive |
| ZNF649 | 3 | 0.552 | 6.85 | 5.79 | inactive |
| SLC9A6 | 1 | -0.494 | -0.505 | 3.68 | inactive |
| SLC9A6 | 2 | 0.416 | 5.89 | 8.8 | inactive |
| SLC9A6 | 3 | -0.347 | 0.526 | 5.92 | inactive |
| ARHGAP30 | 1 | 5.5 | 41.7 | 19.9 | active |
| ARHGAP30 | 2 | -0.855 | -3.05 | 3.42 | inactive |
| ARHGAP30 | 3 | 2.51 | 20.7 | 15.8 | inactive |
| PANX2 | 1 | 1.16 | 11.2 | 8.74 | inactive |
| PANX2 | 2 | 0.386 | 5.69 | 7.18 | inactive |
| PANX2 | 3 | -0.479 | -0.402 | 2.9 | inactive |
| TJAP1 | 1 | -0.115 | 2.16 | 4.96 | inactive |
| TJAP1 | 2 | 0.818 | 8.73 | 5.93 | inactive |
| TJAP1 | 3 | -1.07 | -4.56 | 0.487 | inactive |
| VGLL4 | 1 | -0.85 | -3.01 | 3.97 | inactive |
| VGLL4 | 2 | -0.123 | 2.1 | 4.82 | inactive |
| VGLL4 | 3 | 0.895 | 9.27 | 6.78 | inactive |
| IDNK | 1 | -0.758 | -2.37 | 2.95 | inactive |
| IDNK | 2 | -0.278 | 1.01 | 3.92 | inactive |
| IDNK | 3 | -0.728 | -2.16 | 3.9 | inactive |
| CFI | 1 | 0.216 | 4.49 | 7.12 | inactive |
| CFI | 2 | 0.732 | 8.12 | 7.78 | inactive |
| CFI | 3 | -0.488 | -0.468 | 3.74 | inactive |
| MEIOSIN | 1 | 0.213 | 4.47 | 5.3 | inactive |
| MEIOSIN | 2 | 0.688 | 7.81 | 6.8 | inactive |
| MEIOSIN | 3 | -0.256 | 1.17 | 5.13 | inactive |
| RAET1E | 1 | 0.804 | 8.62 | 8.32 | inactive |
| RAET1E | 2 | -1.46 | -7.29 | 2.48 | inactive |
| RAET1E | 3 | -0.276 | 1.03 | 5.08 | inactive |
| RNF122 | 1 | -0.535 | -0.797 | 4.11 | inactive |
| RNF122 | 2 | 0.143 | 3.97 | 6.04 | inactive |
| RNF122 | 3 | -0.143 | 1.96 | 2.91 | inactive |
| UPP1 | 1 | 5.37 | 40.7 | 17.9 | active |
| UPP1 | 2 | -0.664 | -1.71 | 3.63 | inactive |
| UPP1 | 3 | 1.44 | 13.1 | 11.1 | inactive |
| NEXMIF | 1 | -0.454 | -0.226 | 3.91 | inactive |
| NEXMIF | 2 | 0.63 | 7.4 | 6.5 | inactive |
| NEXMIF | 3 | -0.0131 | 2.88 | 5.35 | inactive |
| PPP2R5C | 1 | 0.29 | 5.01 | 6.42 | inactive |
| PPP2R5C | 2 | -0.92 | -3.5 | 3.25 | inactive |
| PPP2R5C | 3 | 3.94 | 30.7 | 12.7 | inactive |

7 entries from above, reformatted.
{"gene symbol": "GPRIN3", "reagent": 1, "G2 robust z-score": -0.0565, "G2 cells, % of GMNN control": 2.57, "raw share of cells in G2 (%)": 4.58, "call": "inactive"}
{"gene symbol": "GPRIN3", "reagent": 2, "G2 robust z-score": 1.2, "G2 cells, % of GMNN control": 11.4, "raw share of cells in G2 (%)": 7.46, "call": "inactive"}
{"gene symbol": "GPRIN3", "reagent": 3, "G2 robust z-score": -0.531, "G2 cells, % of GMNN control": -0.77, "raw share of cells in G2 (%)": 3.03, "call": "inactive"}
{"gene symbol": "DDHD2", "reagent": 1, "G2 robust z-score": -0.372, "G2 cells, % of GMNN control": 0.352, "raw share of cells in G2 (%)": 6.51, "call": "inactive"}
{"gene symbol": "DDHD2", "reagent": 2, "G2 robust z-score": -0.791, "G2 cells, % of GMNN control": -2.6, "raw share of cells in G2 (%)": 3.29, "call": "inactive"}
{"gene symbol": "DDHD2", "reagent": 3, "G2 robust z-score": 1.07, "G2 cells, % of GMNN control": 10.5, "raw share of cells in G2 (%)": 7.46, "call": "inactive"}
{"gene symbol": "NUCB2", "reagent": 1, "G2 robust z-score": -0.211, "G2 cells, % of GMNN control": 1.48, "raw share of cells in G2 (%)": 3.7, "call": "inactive"}
